# The full ranking holds about 33,000 sequences; the median of “E-score (-0.5 to 0.5)” is about -0.016, and the highest 2% start at about 0.3. The list shows a part of the results.
# Target: T1, Yer184c (UniProt P39961)
# T1 sequence: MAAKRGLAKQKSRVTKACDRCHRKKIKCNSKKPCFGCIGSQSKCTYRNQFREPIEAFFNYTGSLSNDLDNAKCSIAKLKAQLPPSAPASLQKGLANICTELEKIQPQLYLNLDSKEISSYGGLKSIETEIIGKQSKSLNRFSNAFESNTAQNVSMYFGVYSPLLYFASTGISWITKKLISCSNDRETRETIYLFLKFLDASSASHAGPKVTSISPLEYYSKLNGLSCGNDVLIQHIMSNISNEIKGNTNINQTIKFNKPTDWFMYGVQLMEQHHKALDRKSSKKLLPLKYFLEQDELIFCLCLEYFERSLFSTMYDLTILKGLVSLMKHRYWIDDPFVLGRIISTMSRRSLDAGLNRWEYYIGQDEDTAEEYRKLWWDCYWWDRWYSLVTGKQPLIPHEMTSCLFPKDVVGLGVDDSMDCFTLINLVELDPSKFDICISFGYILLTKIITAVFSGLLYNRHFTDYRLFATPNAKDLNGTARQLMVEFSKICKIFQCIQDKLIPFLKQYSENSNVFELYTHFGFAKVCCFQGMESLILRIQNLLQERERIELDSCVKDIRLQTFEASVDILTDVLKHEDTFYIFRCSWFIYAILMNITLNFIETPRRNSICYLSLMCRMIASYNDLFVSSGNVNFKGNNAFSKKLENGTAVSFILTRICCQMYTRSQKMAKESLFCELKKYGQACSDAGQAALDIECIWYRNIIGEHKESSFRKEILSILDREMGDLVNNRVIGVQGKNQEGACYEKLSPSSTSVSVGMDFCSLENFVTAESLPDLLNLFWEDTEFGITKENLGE
# Assay: PBM E-score (8-mer binding enrichment) (E-score (-0.5 to 0.5)); higher = stronger / more preferred TF binding
# Settings: protein concentration: 100 nM; construct: GST-full length
# Outline: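 GST-tagged yeast TFs (full-length or DNA-binding domain) were made by PURExpress in vitro transcription/translation and applied at about 100-200 nM to universal all-10-mer Agilent arrays. The arrays were made double-stranded by primer extension, on fresh or once-stripped slides. Bound protein was detected with fluorescent anti-GST, and scans were normalised with masliner. Each ungapped eight-base word, pooled with its reverse complement, received an E-score (modified Wilcoxon-Mann-Whitney statistic) from the Universal PBM Analysis Suite.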
row,Sequence,PBM E-score
1,GCATATAC,-0.0635
2,GAACAGCC,-0.0222
3,ACATTCGG,0.143
4,CACTTGGA,0.00265
5,AGAGTCAC,-0.172
6,ACTAGTAA,0.124
7,CAGGTAGG,-0.265
8,AGATACTA,0.0257
9,AGGCCCTA,-0.0792
10,GAGCAAAA,-0.0403
11,CACTACGC,-0.159
12,ATCCAGGA,-0.19
13,AACCATAC,-0.0439
14,TGACTACA,-0.022
15,CTCCCTCC,-0.11
16,CAACTGCG,-0.128
17,TCTAGGAA,-0.0682
18,GAGAAAGA,0.173
19,GACTGAAA,0.148
20,AGCCATCA,0.0179
21,CGAAAACC,0.123
22,CGTTAACC,0.0714

row,Sequence,PBM E-score
1,AATATTAT,0.293
2,AATTCGCC,0.267
3,GCGGGCAA,0.0613
4,ATAGCTGC,0.0565
5,CTACGTGA,-0.209
6,CCCAACTA,-0.0958
7,CCCGAGAG,0.0683
8,GGTTGGCA,-0.1
9,CTAAGTCA,0.0188
10,CATTCGTC,0.00576
11,AAAGAGGG,-0.237
12,AGCGCTAC,-0.0782
13,CTGCCATA,-0.167
14,GTAGATGA,0.121
15,TGGATCCA,0.165
16,GGCGAAAC,0.149
17,GATCCCAC,-0.102
18,ATTTGCGC,0.0548
19,AATCTTAG,0.124
20,AGTGTTAT,-0.0049
21,ATGATCCA,-0.219
22,ACTACGTA,-0.0862

# An excerpt of these results, as tab-separated lines.
row	Sequence	PBM E-score
1	GCATATAC	-0.0635
3	ACATTCGG	0.143
4	CACTTGGA	0.00265
5	AGAGTCAC	-0.172
6	ACTAGTAA	0.124
7	CAGGTAGG	-0.265
8	AGATACTA	0.0257
9	AGGCCCTA	-0.0792
16	CAACTGCG	-0.128
17	TCTAGGAA	-0.0682
19	GACTGAAA	0.148
20	AGCCATCA	0.0179
21	CGAAAACC	0.123
1	AATATTAT	0.293
2	AATTCGCC	0.267
4	ATAGCTGC	0.0565
9	CTAAGTCA	0.0188
10	CATTCGTC	0.00576
11	AAAGAGGG	-0.237
12	AGCGCTAC	-0.0782
13	CTGCCATA	-0.167
17	GATCCCAC	-0.102
20	AGTGTTAT	-0.0049
22	ACTACGTA	-0.0862

# Next part

row,Sequence,PBM E-score
1,ACACCATA,-0.0101
2,CCCATCTA,-0.176
3,AGCATATC,-0.0796
4,GCGTTTGA,-0.0099
5,AATATTGT,0.225
6,AATCTAAC,0.133
7,TAACCATA,-0.0927
8,GATAGCGA,-0.145
9,CCTGTGCC,-0.0204
10,CTGGTCCA,-0.222
11,ATACCGCA,-0.135
12,CCAGCTAG,-0.263
13,CTCAGGCA,-0.00429
14,AGAAGAAG,0.0766
15,CAGTCTCG,-0.0905
16,CTCTACTA,0.0728
17,ATACAGGG,-0.0592
18,ATACGCGA,-0.1
19,CCGATGCA,0.157
20,AATACGAT,0.0429
21,CCGGATCA,0.328
22,GTTGGCGA,0.0969

row,Sequence,PBM E-score
1,AAGCCTGA,-0.123
2,GTACTAGA,0.0879
3,CGCGGTCA,-0.0723
4,ACTTACAG,-0.0371
5,GAACCTAC,0.0438
6,ACATCGGG,-0.141
7,ACTTAGTA,0.241
8,ATACAGAG,-0.122
9,GCCGCAAC,0.177
10,AGTACGTG,-0.245
11,GGTGCCCA,-0.189
12,ATCAACGC,0.044
13,GCTGACAA,0.168
14,AAAATCCC,-0.0891
15,CTTGCAAC,-0.0155
16,ACTTGTGA,-0.0537
17,AAGGTATG,-0.147
18,ATTCGAGA,-0.0838
19,GGTAGTAC,-0.0454
20,GACATCAA,0.188
